## Primary screen of a compound library

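Phenotypic screen: M. tuberculosis growth, cholesterol and DPPC medium, 4 days; the read-out is not stated. Tested at 50 µM. The record gives no direction; compounds that gave an IC50 in retests scored well above the rest, so higher reads as more growth inhibition. Of about 69,000 compounds tested this way, about 370 (0.54%) reached 50% or more in at least one test.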

Results are given as percent effect. The record does not define 0% and 100%; most values in the screen are far below 50% and negative numbers occur (in some assays of this library far below -100). This is an unselected part of the compounds tested. Two or more numbers in one place are separate tests of the same structure; such repeats can differ widely.

| # | Compound | effect |
|---|---|---|
| 1 | `Cc1nccc(-c2cccc(NCC(=O)N3CCNC3=O)c2)n1` | 1.631% |
| 2 | `OC[C@H]1CN(C2Cc3ccccc3C2)C[C@H]1CN1CCC(O)CC1` | 18.29% |
| 3 | `Cc1cc2n(n1)CC(CNCc1ccc(N3CCOCC3)nc1)CN2` (stereo not shown) | -4.121% |
| 4 | `Cc1nn(CN(CC2CCOC2)C2CC2)c(=O)c2ccccc12` (stereo not shown) | -10.03% |
| 5 | `Cc1ccc(F)c(C(=O)Nc2cccc(CCN3CCCC3)c2)c1` | 9.7% |
| 6 | `Cc1ccc(C)c(NC(=O)c2n[nH]c(-n3cnnc3)n2)c1` | 1.906% |
| 7 | `Cn1cc(-c2cnc(N3CCOCC3)nc2)cc1C(=O)NCCC#N.O=C(O)C(F)(F)F` | 19.3% & -6.266% |
| 8 | `Cn1ncc2c(=O)[nH]c(CN(Cc3cccc(F)c3)C3CC3)nc21` | -5.548% |
| 9 | `CCCC(C)CS(=O)(=O)NCc1cccnc1OC` (stereo not shown) | 5.162% |
| 10 | `Cn1cc(C2(C)CN(Cc3ccc(N4CCCC4)nc3)CCO2)cn1` (stereo not shown) | -6.901% |
| 11 | `COc1c(C)cc(CNCc2ccnc(N3CCOCC3)c2)cc1C.Cl` | 10.72% |
| 12 | `COC(C)c1cccc(NCc2cccs2)c1` (stereo not shown) | -1.873% |
| 13 | `CCOCC1CN(Cc2cccnc2OC)Cc2cnn(C)c21.O=C(O)C(F)(F)F.O=C(O)C(F)(F)F.O=C(O)C(F)(F)F` (stereo not shown) | -8.58% & -14.91% |
| 14 | `CC(C)(C)C1CCC(O)(CNC(=O)CCS(C)(=O)=O)CC1` (stereo not shown) | 16.69% |
| 15 | `Cn1ccnc1CN1CCCN(C(=O)c2ccc3[nH]nnc3c2)CC1` | 11.72% |
| 16 | `[H][C@]12CN(C(=O)COC3CCCC3)C[C@@]1([H])OCCN(S(C)(=O)=O)C2` | -10.04% |
| 17 | `CSc1nccc(N2CCC(NCc3ccc4nsnc4c3)CC2)n1` | 12.45% |
| 18 | `CN(c1ccncn1)C1CC2(CCN(C(=O)c3ccsc3)C2)C1` (stereo not shown) | -0.3232% |
| 19 | `O=C(CN(Cc1cccs1)C1CCS(=O)(=O)C1)NC1CCCCC1` (stereo not shown) | -8.002% |
| 20 | `CCCc1cc(C(=O)N[C@@H]2CC[C@@H](N3CCOCC3)[C@@H]2O)no1` | 1.569% |
| 21 | `CC1CCN(S(=O)(=O)N2CCc3sccc3C2)CC1` | 6.755% |
| 22 | `CCN1CCC(NC(=O)CN2CCCCC2Cn2cc(C)cn2)CC1` (stereo not shown) | -63.62% |
| 23 | `CC(NC(=O)NC1CCN(Cc2ccncc2)CC1)c1ccc(F)cc1` (stereo not shown) | -19.42% |
| 24 | `O=C(CCc1ccccc1)N1CC(n2cncn2)C1` | 6.757% |
| 25 | `Cc1cc(C)c(CNC(=O)N2CCC(N3CCCCC3)CC2)c(=O)[nH]1` | -4.861% & -0.09363% |
| 26 | `Cn1ccc2c(cnc3nc(-c4ccncc4)nn32)c1=O` | 0.1647% |
| 27 | `COCCCS(=O)(=O)N1CCN(C(C)(C)CO)CC1` | -7.52% |
| 28 | `CCc1nc(NC2CCN(CC(=O)NC3CC3)CC2)c2cnn(C)c2n1` | -15.5% |
| 29 | `Cc1nc[nH]c1CN1CCCC(CNC(=O)c2ccncn2)C1` (stereo not shown) | 4.144% & -0.8281% |
| 30 | `[H][C@@]12CN(Cc3cc4ccccc4s3)C[C@]1([H])N(Cc1ccccn1)C(=O)O2` | 0.9785% |
| 31 | `[H][C@@]12CCN(Cc3ccccn3)[C@@]1([H])CCN2C(=O)c1cnoc1C` | 0.2579% |
| 32 | `Cc1cc(CN(C)C(=O)NCc2ccco2)no1` | -4.077% |
| 33 | `CCc1cn[nH]c1C1CCN(C(=O)c2cccc(O)c2C)CC1` | -8.693% |
| 34 | `c1ccc2c3c([nH]c2c1)CN(Cc1cc2n(n1)CCNC2)CC3` | -19.09% |
| 35 | `CC(C)=CCN1CCNC(=O)C1CC(=O)N1CCc2sccc2C1` (stereo not shown) | -5.303% & 8.878% |
| 36 | `CNC(=O)c1cc2c(nc1NCC1CC1)CCN(c1ncccn1)CC2` | -11% |
| 37 | `O=C(c1sccc1-n1cnnn1)N1CCC(Cc2ccccc2)CC1` | -0.6805% |
| 38 | `Oc1nc(N2CCOCC2)nc2nccc(-c3ccccn3)c12` | -8.838% |
| 39 | `COc1ccc(OCc2noc(CN(C)C3CCS(=O)(=O)C3)n2)cc1` (stereo not shown) | 10.69% |
| 40 | `N#Cc1cccnc1OC1CCN(S(=O)(=O)c2c(F)cccc2F)CC1` | 8.962% |
| 41 | `COc1ccc(CC(=O)N2CCN(Cc3ccco3)C[C@@H]2C)cc1OC` | 0.605% & 5.91% |
| 42 | `COc1cccc(S(=O)(=O)NC(=O)CCC2CCCO2)c1` (stereo not shown) | -27.67% |
| 43 | `Cc1cnc(C(NC(=O)NCC2(CO)CC2)C2CC2)s1` (stereo not shown) | 18.45% |
| 44 | `CCc1nc(CN(C)C(=O)C2CCC(=O)N(CC3CCCCC3)C2)no1` (stereo not shown) | -0.9403% & 10.64% |
| 45 | `O=C(O)C(F)(F)F.O=C(O)C(F)(F)F.[H][C@@]12COC[C@]1([H])[C@@H](OCCN(C)C)CN2Cc1ccco1` | 1.757% |
| 46 | `CC(C)c1ncc(C(=O)N2CCOCC2CC(=O)c2ccco2)s1` (stereo not shown) | -5.647% |
| 47 | `COC1CCN(C(=O)Cn2ncc(N3CCCCC3)cc2=O)C1` (stereo not shown) | -27.08% |
| 48 | `CCC(CC)C(=O)N1CCOC2(COCCN(CC(=O)NC)C2)C1.O=C(O)C(F)(F)F` (stereo not shown) | -10.19% |
| 49 | `Cc1nc(COCc2cnc3n2CCN(C2CCC2)C3C)cs1.O=C(O)C(F)(F)F` (stereo not shown) | 19.06% |
| 50 | `O=C(Nc1cccc(CNCc2ccccn2)c1)C1CCCC1` | -14.86% |
| 51 | `CCN(Cc1nc(Cc2ccccc2)no1)C1CC1` | 13.16% |
| 52 | `COCCC(=O)N1CCC(c2nc(O)cc(-c3ccncc3)n2)C1` (stereo not shown) | -19.05% |
| 53 | `COc1cccc(CNc2cc(C)nc(-c3ccncc3)n2)c1O` | 14.92% |
| 54 | `[H][C@@]12COC[C@]1(COCC1CC1)CN(C(=O)C1=CCCC1)C2` | -2.007% |
| 55 | `CN1CCC(CNC(=O)c2cccc(C(F)(F)F)c2)c2ccccc21` (stereo not shown) | 34.15% |
| 56 | `CC(C)NC(=O)[C@@H]1C[C@H](N)CN1C(=O)c1cc2ccccc2[nH]c1=O` | 3.17% |
| 57 | `Cc1ncsc1C(=O)NCCSCc1cccs1` | 13.09% |
| 58 | `Cc1nc2c(c(N(C)C)n1)CCN(C(=O)c1sccc1S(N)(=O)=O)C2` | -21.01% |
| 59 | `COc1cccc(OC)c1C(=O)N1C[C@@H](CN(C)C)[C@@H](CO)C1` | -0.8237% & -6.889% |
| 60 | `O=C(NCCOc1ccc2c(c1)OCO2)C1CC(=O)N(CC2CC2)C1` (stereo not shown) | 12.01% |
| 61 | `CC(=O)N1CCOC2(CCN(C(=O)C3CC3)CC2)C1` | -4.157% |
| 62 | `Cn1cc(S(=O)(=O)N(Cc2ccc(F)cc2F)C2CC2)cc1C(N)=O` | -8.086% |
| 63 | `O=C(c1cc[nH]n1)N1CCCC(c2cc(C(F)(F)F)[nH]n2)C1` (stereo not shown) | -3.99% |
| 64 | `CC(=O)N1CCN(C(=O)c2ccc3ccn(C)c3c2)CC1` | 2.215% |
| 65 | `O=C(c1cc[nH]n1)N(Cc1cccc(O)c1)CC1CC1` | -11.41% |
| 66 | `CC1CCCN(C(=O)CCNS(=O)(=O)c2cccnc2)C1` (stereo not shown) | -15.98% |
| 67 | `COCCN1CCCCC12CC(=O)N(c1ccccc1OC)C2.O=C(O)C(F)(F)F` (stereo not shown) | -4.279% |
| 68 | `COCC(=O)N1CCCC(c2csc(NC(C)=O)n2)C1` (stereo not shown) | 5.86% |
| 69 | `COCCN(Cc1ccc(C)o1)C(=O)Nc1nnc(C(F)F)s1` | -2.185% |
| 70 | `CC(NC(=O)N(C)CCCOc1ccc(F)cc1)c1nncn1C` (stereo not shown) | -31.6% |
| 71 | `O=C(O)C(F)(F)F.[H][C@@]12CCN(CCc3ccccc3)C[C@@]1([H])O[C@@H](C(=O)NCCOC)C2` | -0.1403% & -12.97% |
| 72 | `[H][C@@]12CS(=O)(=O)C[C@]1([H])N(C(=O)c1cc(C(F)(F)F)n[nH]1)CCN2CC` | 5.553% |
| 73 | `COc1cccc(-n2nnc(C(=O)N3CCCCCC3)c2C)c1` | -13.29% |
| 74 | `O=S(=O)(c1ccccc1)N1CCOCC(Cc2cccnc2)C1` (stereo not shown) | 13.91% |
| 75 | `Fc1cnc(N2CCC3(CC2)CN(Cc2ccccn2)CCO3)nc1.O=C(O)C(F)(F)F.O=C(O)C(F)(F)F` | -16.69% |
| 76 | `CC1CN(CC(=O)NC2CCOCC2)CCN1Cc1nccn1C` (stereo not shown) | -1.922% |
| 77 | `COc1cc(C(=O)NCCCO)cc2occc12` | 11.03% |

From ChEMBL document CHEMBL3988442, “University of Dundee, Small-Polar-MMV Screening Library” (2021).